Drawing on patent US20260258156A1, this text covers binding for four molecules.

Sequences of proteins named here, by UniProt entry; tags and fusion partners are left off. A change or cut given only in a name is not applied to a line headed by its entry.
UniProt Q9Y337: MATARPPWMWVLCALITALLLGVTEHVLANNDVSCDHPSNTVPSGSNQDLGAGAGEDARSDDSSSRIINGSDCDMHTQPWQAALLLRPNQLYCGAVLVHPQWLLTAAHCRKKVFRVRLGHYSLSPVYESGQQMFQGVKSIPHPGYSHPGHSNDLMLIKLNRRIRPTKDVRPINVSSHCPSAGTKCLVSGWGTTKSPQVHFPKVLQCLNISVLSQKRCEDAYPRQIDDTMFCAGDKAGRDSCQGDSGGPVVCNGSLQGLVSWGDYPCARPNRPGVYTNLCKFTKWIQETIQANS

Assay [1] has as its target human KLK5, active form (human) (UniProt Q9Y337). Briefly: SPR relative response curves.
The target is the same in assay [2]. Briefly: SPR, antibody coupled to CM5 chip. (In general: Surface plasmon resonance follows binding to a sensor surface in real time, without labels.)
The target is the same in assay [3]. Briefly: SPR (Biacore), antibody captured on Protein A chip.
Assay [4] shares this target. Briefly: SPR (Biacore), antibody captured on Protein A chip, KLK at 0.156-40 nM.
For assay [5] the target is unchanged. Briefly: SPR, antibody captured on Protein A chip, 20 nM huKLK5 without inhibitor.
The target is the same in assay [6]. Briefly: SPR sandwich binning, KLK5/7-Dual-Ab4 coupled to CM5 chip, huKLK5 flowed over.

These are yes or no findings as the source states them, for the method shown. Binding can be weak; no strength is given.

B1: KLK5/KLK7-Dual-Ab4 (antibody, V domains shown)
VH: QLQLQESGPGLVKPSETLSLTCTVSGGSISSLDYYWVWIRQPPGKGLEWIGSIDYSGDTYYNPSLKSRVTISVDTSKNQFSLKLSSVTAADTAVYYCARGRPLGYGARHYYYAMDVWGQGTTVTVSS
VL: DIQMTQSPSSLSASVGDRVTITCRASQSISSYLNWYQQKPGKAPKLLIYSASSLQSGVPSRFSGSGSGTDFTLTISSLQPEDFATYYCQQSPYFPPLTFGGGTKVEIK
For B1, the binding entry in assay [1], in assay [2], in assay [3], in assay [4], in assay [5] and in assay [6] was “binds” throughout.

B2: KLK5/KLK7-Dual-Ab2 (antibody, V domains shown)
VH: QLQLQESGPGLVKPSETLSLTCTVSGGSISSDDYYWVWIRQPPGKGLEWIGSIDYFASTYYNPSLKSRVTISVDTSKNQFSLKLSSVTAADTAVYYCARGRPLGYGARHDYYGMDVWGQGTTVTVSS
VL: DIQMTQSPSSLSASVGDRVTITCRASQSISSYLNWYQQKPGKAPKLLIYSASSLQSGVPSRFSGSGSGTDFTLTISSLQPEDFATYYCQQSPYFPPLTFGGGTKVEIK
Regarding B2, the binding entry in assay [3] and in assay [5] was “binds” in each case.

B3: KLK5/KLK7-Dual-Ab1 (antibody, V domains shown)
VH: QLQLQESGPGLVKPSETLSLTCTVSGGSISSSDYYWGWIRQPPGKGLEWIGSIYYSGSTYYNPSLKSRVTISVDTSKNQFSLKLSSVTAADTAVYYCARGRPLGYGARHYYYGMDVWGQGTTVTVSS
VL: DIQMTQSPSSLSASVGDRVTITCRASQSISSYLNWYQQKPGKAPKLLIYSASSLQSGVPSRFSGSGSGTDFTLTISSLQPEDFATYYCQQSPPFPPLTFGGGTKVEIK
For the molecule B3, in assay [3], the binding entry is “binds”.

B4: KLK5/KLK7-Dual-Ab3 (antibody, V domains shown)
VH: QLQLQESGPGLVKPSETLSLTCTVSGGSISSDDYYWVWIRQPPGKGLEWIGSIDYYASTYYSPSLKSRVTISVDTSKNQFSLKLSSVTAADTAVYYCARGRPLGYGAKHYYYGMDVWGQGTTVTVSS
VL: DIQMTQSPSSLSASVGDRVTITCRASQSISSYLNWYQQKPGKAPKLLIYSASSLQSGVPSRFSGSGSGTDFTLTISSLQPEDFATYYCQQSPYFPPLTFGGGTKVEIK
On to B4, for which the binding entry in assay [3] is “binds”.
